# Some of the results follow.
# Assay: hypoxia reporter signal reduction in M. tuberculosis – fluorescence, absorbance growth readout, primary screen (AID 1159583)
# Settings: M. tuberculosis hypoxia-regulated fluorescent reporter, measured here: M. tuberculosis growth (absorbance), stronger effect = higher value, concentration not given here
row,Structure (SMILES),growth inhibition [%]
1,Cc1ccc2nc3c(c(C)c2c1)CC(C(Cl)Cl)S3 (stereo unspecified),-2.2
2,Cc1cccc(C)c1OP(C)(N)=O (stereo unspecified),-4.94
3,Cc1ccc(OP(=O)(Nc2ccc([N+](=O)[O-])cn2)Oc2ccc(C)cc2)cc1,1.65
4,CC(C)(C)c1ccc(OP(C)(=O)Nc2ccc(SC(F)(F)F)cc2)cc1 (stereo unspecified),8.8
5,O=[N+]([O-])c1ccc(-c2cc([N+](=O)[O-])c(O)c([N+](=O)[O-])c2)cc1,1.51
6,COc1cc(C(=O)NCC2(N3CCOCC3)CCCCC2)ccc1OCC(C)C,9.77
7,O=[As](O)(c1ccc(O)cc1)c1ccccc1O,58
8,C[As](=O)(O)c1cccc(C(=O)O)c1,1.15
9,O=[N+]([O-])c1cc([N+](=O)[O-])c(Nc2cccnc2)c([N+](=O)[O-])c1,8.17
10,O=[N+]([O-])c1ccc(Nc2ccc(Oc3ccc([N+](=O)[O-])cc3[N+](=O)[O-])cc2)c([N+](=O)[O-])c1,-4.84
11,CP(=O)(Nc1ccccc1Br)Oc1ccccc1 (stereo unspecified),-5.79
12,COc1ccccc1OP(C)(=O)Nc1ccccc1 (stereo unspecified),5.91
13,Cc1cc(SC(NC=O)C(Cl)(Cl)Cl)ncn1 (stereo unspecified),8.3
14,O=P(Nc1ccccn1)(c1cccc2ccccc12)c1cccc2ccccc12,5.48
15,CCOC(=O)Nc1cccc([As](=O)(O)O)c1,2.75
16,Cc1cc(SC(NC(=O)c2ccccc2)C(Cl)(Cl)Cl)nc(C(C)C)n1 (stereo unspecified),5.33
17,COc1ccc(NC(=NP(=O)(N2CCOCC2)N2CCOCC2)N2CCOCC2)cc1,-4.94
18,CCCCOc1ccc(C(=O)NCC2(N3CCCCC3)CCCCC2)cc1OC,11.9

row,Structure (SMILES),growth inhibition [%]
1,CC1CCNP(=O)(N(CCCl)CCCl)O1 (stereo unspecified),2.9
2,CCOC(=O)Nc1ccc([As](=O)(O)O)c(O)c1,55.2
3,CP(=O)(Nc1ccccn1)Oc1ccc(Cl)cc1 (stereo unspecified),10.5
4,CCC(C)N(CC(C)C)C(=S)SC(NC(C)=O)C(Cl)(Cl)Cl (stereo unspecified),6.93
5,O=[N+]([O-])c1cc([N+](=O)[O-])c(O)c([N+](=O)[O-])c1.c1ccc(Oc2ccncc2)cc1,-15.9
6,CCOC(=O)c1ccc(NP(C)(=O)Oc2ccc(OC)cc2)cc1 (stereo unspecified),3.78
7,CCOC(=O)c1ccc(NC(=O)C(C)(CCl)SC)cc1 (stereo unspecified),-5.95
8,O=C(OC1CN2CCC1CC2)c1cccc([N+](=O)[O-])c1 (stereo unspecified),5.61
9,Cc1cc(C)cc(OP(C)(=O)Nc2ccc(SC(F)(F)F)cc2)c1 (stereo unspecified),-1.32
10,O=C(Nc1ccncc1[N+](=O)[O-])c1ccc([N+](=O)[O-])cc1[N+](=O)[O-],14.1
11,CP(=O)(NC(=O)Nc1ccccc1)Oc1ccccc1 (stereo unspecified),3.33
12,O=C(COc1ccccc1)OC1CN2CCC1CC2 (stereo unspecified),9.7
13,CCc1ccc(OP(C)(=O)N2CCN(c3ccc([N+](=O)[O-])cc3)CC2)cc1 (stereo unspecified),4.49
14,CC1OP(=O)(Oc2ccccc2)C(O)C(O)C1N=[N+]=[N-] (stereo unspecified),-7.09
15,CP(=O)(Oc1ccccc1)OC(c1ccccc1)C(F)(F)F (stereo unspecified),6.17
16,COP1(=S)c2c(C)nn(CCC#N)c2N=C(c2ccc(F)cc2)N1C (stereo unspecified),0.341
17,CP(=O)(Nc1ccc(SC(F)(F)F)cc1)Oc1ccc(Cl)cc1 (stereo unspecified),2.58
18,Cc1cccc(C)c1OP(C)(=O)Nc1ccc(SC(F)(F)F)cc1 (stereo unspecified),1.34

# From PubChem BioAssay AID1159583 (ICCB-Longwood Screening Facility, Harvard Medical School, 2016)
